Assay [1] deals with T1, adjacent 10 aa and 13 aa cyclic ApoC3 peptides with the consensus motif … (human).
T1 sequence (peptide, cyclic (thioether)): FSEFWDLDPE
In words: cyclic ApoC3 peptide microarray, antibody at 0.2 µg/ml, fluorescent secondary antibody.

Protein sequences, listed by entry. Tags and fused reporters are not part of them. Lines headed by an entry give the natural chain unless they say otherwise; changes in a name come on top.
UniProt P02656: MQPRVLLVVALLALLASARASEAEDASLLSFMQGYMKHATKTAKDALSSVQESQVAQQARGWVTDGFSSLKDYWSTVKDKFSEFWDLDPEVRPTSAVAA

Assay [2] shares this target. In words: cyclic ApoC3 peptide microarray, antibody at 0.2 µg/ml.
In assay [3] the target is human ApoC3 (huApoC3), native protein purified from human serum (human) (UniProt P02656). In words: ELISA, huApoC3 coated directly, scFv periplasmic extract.
The target of assay [4] is T1, adjacent 10 aa and 13 aa cyclic ApoC3 peptides with the consensus motif … (human). In words: cyclic ApoC3 peptide microarray, antibody at 1 µg/ml, fluorescent secondary antibody.
For assay [5] the target is unchanged. In words: cyclic ApoC3 peptide microarray, antibody at 1 µg/ml.
Assay [6] concerns the target T2, adjacent 13 aa cyclic ApoC3 peptides with the consensus motif … (human).
T2 sequence (peptide, cyclic (thioether)): GWVTDGFSSLK
In words: cyclic ApoC3 peptide microarray, antibody at 1 and 10 µg/ml, fluorescent secondary antibody.

Assay [7] has the same target. In words: cyclic ApoC3 peptide microarray, antibody at 1 µg/ml and 10 µg/ml.

No constants are given. Whether binding was seen depends on the method and setting. Some results given as binding are weak or reduced against the parent protein; the word gives no strength. Ends that are not written are not given here.

B1: Llama antibody 6A6 (antibody, V domains shown)
VH: EVQLVESGGGLVQPGGSLRLSCAASGFTFSSYAGRWVRQVPGKGLEWVSSINAGGGSTSYADSVKGRFTISRDNAKNTLYLQMNSLKPEDTAKYYCTQNSYRYWGQGTRVAVSS
VL: DVVLTQTPGSLSVVPGESASISCKASQSLIHTDGKTYLYWLLQKPGQRPQLLIYQVSSHESGVPDRFTGSGSGTDFTLKISGVKAEDAGVYYCAQATYNPRTFGQGTKLEIK
As to B1, the binding result in assay [1] and in assay [2] was “binds” each time.

B2: 5A4 scFv (scFv, V domains shown)
VH: QLQLVESGGGLVQPGGSLRLSCVASGFAFSHYTMYWVRQAPVRGLERVSAISGGGDRTIYTDSVKGRFTISRDNAANALYLQMNSLQPEDTAVYYCVAQGYEYWGQGTRVTVSS
VL: ATMLTQSPGSLSVVPGESASISCKAIQSLVHTDGKTYLYWFLQKPGQSPQRLIYQVSNRGSGVPDRFTGSGSGTDFTLKISGVKAEDAGVYYCAQGTYSSKTFGQGTKLEIK
For B2, in assay [3], the binding entry is on record as “binds”.

B3: 8H4 scFv (scFv, V domains shown)
VH: ELQLVESGGGLVQPGRSLRLSCAASGFTFSSYSMRWVRQTPGKGLEWVTSINSDGGSTKYSDSVKGRFTISRDNAKNTLYLQMNNVKPEDTAIYYCAIQGYTDWGQGTQVTVSS
VL: DVVLTQTPGSLSVVPGESASISCKVSQSLVHSDGKTYLYWLLQKPGQSPQRLIYQVSNRDSGVPDRFTGSGSGTDFTLKISGVKAEDAGVYYCAQGTYNPYTFGSGTRLEIK
As to B3, in assay [3], the binding result is “binds”.

B4: Llama antibody 5E5 (antibody, V domains shown)
VH: QLQLVESGGGLVQPGGSLRLSCAASGFTFGTYSMRWVRQVPRKALEWVSSISTDGGGTAYRDSVKGRFTISRDNAKNTLYLQMNNLKPEDTAIYYCVIAGYSDWGQGTQVTVSS
VL: ATMLTQSPGSLSVVPGESASISCKTSQGLVHSDGKTYFYWFLQKPGQSPQQLIYQVSNRASGVPDRFTGSGSGTDFTLKISGVKAEDAGVYYCAQGTYYPHTFGSGTRLEIK
notes: detected with goat anti-human IgG (Fc); also called mAb 5E5
Turning to B4, the binding result in assay [4] and in assay [5] was “binds” in each case.

B5: Llama antibody 14C7 (antibody, V domains shown)
VH: QVQVQESGPGLVKPSQTLSLTCTVSGGSITTNSYYWSWIRQPPGKGLEWMGAIDYSGDTYYSPSLKSRTSISRDTSKNQFTLQLTSVTPEDTAVYYCVSRIPTGEYWGQGTQVTVSS
VL: QTVVTQEPSLSVSPGGTVTLTCGLNSGSVTSSNYPDWYQQTPGQAPRLLIYNTNSRHSGVPSRFSGSISGNKAALTITGAQPEDEADYYCALYMGSDSVVFGGGTHLTVL
With B5, the binding entry in assay [6] and in assay [7] was “binds” throughout.

For the origin of these results see patent US20190241648A1 (STATEN BIOTECHNOLOGY B V, published 2019).
